Experimental data taken from publication PMC4144951.
Results are given in words; binding and its absence hold for the method and conditions named. Some binding calls cover weakened binding; strength is not graded here.

Legend:
[1] = target: hen egg white lysozyme (hen) (UniProt P00698); experiment: co-aggregation checked by SDS-PAGE; results not shown; DTT-reduced HEWL (0.25 mg/ml) incubated with sHSP as in the chaperone assay; both purified
[2] = target: human recombinant insulin (human) (UniProt P01308); experiment: dynamic light scattering; 0.25 mg/ml insulin with sHSP at insulin:sHSP 1:0.2 and 1:0.1, 10 mM DTT, 37°C, 90 min; 50 mM sodium phosphate, 100 mM NaCl, pH 7.5; both purified

| Binder | binding [1] | binding [2] |
| --- | --- | --- |
| human HSPB6, wild type, full length (protein, UniProt O14558 1-160) MEIPVPVQPSWLRRASAPLPGLSAPGRLFDQRFGEGLLEAELAALCPTTLAPYYLRAPSVALPVAQVPTDPGHFSVLLDVKHFSPEEIAVKVVGEHVEVHARHEERPDEHGFVAREFHRRYRLPPGVDPAAVTSALSPEGVLSIQAAPASAQAPPPAAAK | binds | binds |
| HSPB6 Δ31–40 (protein, UniProt O14558) MEIPVPVQPSWLRRASAPLPGLSAPGRLFDELAALCPTTLAPYYLRAPSVALPVAQVPTDPGHFSVLLDVKHFSPEEIAVKVVGEHVEVHARHEERPDEHGFVAREFHRRYRLPPGVDPAAVTSALSPEGVLSIQAAPASAQAPPPAAAK | binds | binds |
| HSPB6 ΔN11 (domain or fragment, UniProt O14558 12-160) LRRASAPLPGLSAPGRLFDQRFGEGLLEAELAALCPTTLAPYYLRAPSVALPVAQVPTDPGHFSVLLDVKHFSPEEIAVKVVGEHVEVHARHEERPDEHGFVAREFHRRYRLPPGVDPAAVTSALSPEGVLSIQAAPASAQAPPPAAAK | binds | – |
| HSPB6 Δ11–20 (protein, UniProt O14558) MEIPVPVQPSGLSAPGRLFDQRFGEGLLEAELAALCPTTLAPYYLRAPSVALPVAQVPTDPGHFSVLLDVKHFSPEEIAVKVVGEHVEVHARHEERPDEHGFVAREFHRRYRLPPGVDPAAVTSALSPEGVLSIQAAPASAQAPPPAAAK | binds | – |
| HSPB6 Δ21–30 (protein, UniProt O14558) MEIPVPVQPSWLRRASAPLPQRFGEGLLEAELAALCPTTLAPYYLRAPSVALPVAQVPTDPGHFSVLLDVKHFSPEEIAVKVVGEHVEVHARHEERPDEHGFVAREFHRRYRLPPGVDPAAVTSALSPEGVLSIQAAPASAQAPPPAAAK | binds | – |
| HSPB6 Δ41–50 (protein, UniProt O14558) MEIPVPVQPSWLRRASAPLPGLSAPGRLFDQRFGEGLLEAAPYYLRAPSVALPVAQVPTDPGHFSVLLDVKHFSPEEIAVKVVGEHVEVHARHEERPDEHGFVAREFHRRYRLPPGVDPAAVTSALSPEGVLSIQAAPASAQAPPPAAAK | binds | – |
| HSPB6 Δ51–60 (protein, UniProt O14558) MEIPVPVQPSWLRRASAPLPGLSAPGRLFDQRFGEGLLEAELAALCPTTLALPVAQVPTDPGHFSVLLDVKHFSPEEIAVKVVGEHVEVHARHEERPDEHGFVAREFHRRYRLPPGVDPAAVTSALSPEGVLSIQAAPASAQAPPPAAAK | binds | – |
| HSPB6 Δ61–70 (protein, UniProt O14558) MEIPVPVQPSWLRRASAPLPGLSAPGRLFDQRFGEGLLEAELAALCPTTLAPYYLRAPSVPGHFSVLLDVKHFSPEEIAVKVVGEHVEVHARHEERPDEHGFVAREFHRRYRLPPGVDPAAVTSALSPEGVLSIQAAPASAQAPPPAAAK | binds | – |
